From publication PMC13257416
These are yes or no findings as the source states them, for the method shown. In cells and extracts the contact can be indirect. Binding can be weak; no strength is given. Tags and fused reporters may be left off the sequences shown.

Target: T1, GST-AnxA6 fusion protein (UniProt P08133)
T1 sequence: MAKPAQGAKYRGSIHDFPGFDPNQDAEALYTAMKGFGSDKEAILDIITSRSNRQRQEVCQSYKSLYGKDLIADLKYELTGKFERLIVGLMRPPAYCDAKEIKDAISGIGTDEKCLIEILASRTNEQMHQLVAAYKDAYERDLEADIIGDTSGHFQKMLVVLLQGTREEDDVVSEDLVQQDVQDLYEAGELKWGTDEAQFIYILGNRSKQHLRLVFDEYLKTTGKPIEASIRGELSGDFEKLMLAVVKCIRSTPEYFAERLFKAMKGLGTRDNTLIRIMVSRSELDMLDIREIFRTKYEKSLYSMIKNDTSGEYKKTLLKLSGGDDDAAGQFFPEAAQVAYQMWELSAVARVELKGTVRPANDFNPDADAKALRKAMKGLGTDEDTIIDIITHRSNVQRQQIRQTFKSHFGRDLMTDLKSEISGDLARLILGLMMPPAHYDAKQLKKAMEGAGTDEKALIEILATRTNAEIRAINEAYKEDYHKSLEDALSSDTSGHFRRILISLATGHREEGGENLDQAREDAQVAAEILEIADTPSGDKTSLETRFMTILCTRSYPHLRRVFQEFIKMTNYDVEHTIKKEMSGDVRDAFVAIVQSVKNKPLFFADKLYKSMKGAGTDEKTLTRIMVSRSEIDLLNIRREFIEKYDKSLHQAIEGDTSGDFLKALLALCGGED
Assay: pull-down; 2 µg of GST-AnxA6 immobilized to glutathione beads, incubated with 500 µg of whole cell extract from MDA-468 cells in lysis buffer with or without 1 mM Ca2+; Western blotting; only the target purified

With “E-cadherin (human (endogenous in MDA-468))” the binding was “binds”.
